In article PMC2848588:
Results are given in words; binding and its absence hold for the method and conditions named. Where a sequence is shown, tags or fusion partners need not be part of it.

Target: YqeH (Bacillus subtilis), full length, His-tagged (Bacillus subtilis) (UniProt P54453)
Test: SEC; analytical gel filtration, Superdex 200 5/150 GL; 7 µM YqeH in 20 mM Tris pH 8, 10 mM MgCl2, 150 mM KCl; nucleotide-free, with 1 mM GDP, with 1 mM GTP, or with 1 mM GDP + 1 mM AlCl3 + 10 mM NaF (GDP·AlFx); incubated at room temperature for 10 min; both purified

B1: YqeH (Bacillus subtilis), full length, His-tagged (enzyme, UniProt P54453 1-366)
chain: MEKVVCIGCGVTIQTEDKTGLGYAPPASLTKENVICQRCFRLKNYNEIQDVSLTDDDFLNILHGIGETDSLVVKIVDIFDFNGSWINGLQRLVGGNPILLVGNKADILPKSLKRERLIQWMKREAKELGLKPVDVFLVSAGRGQGIREVIDAIEHYRNGKDVYVVGCTNVGKSTFINRIIKEVSGEEDIITTSQFPGTTLDAIEIPLDDGSSLYDTPGIINNHQMAHYVNKKDLKILSPKKELKPRTFQLNDQQTLYFGGLARFDYVSGERSPFICYMPNELMIHRTKLENADALYEKHAGELLTPPGKDEMDEFPELVAHTFTIKDKKTDIVFSGLGWVTVHDADKKVTAYAPKGVHVFVRRSLI
For B1, the binding was “no binding (tested: 7 µM)”.
